PubChem BioAssay AID1224828 | NIAID, 2016

Screen: 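Regulators linking TLR4 signalling to p65 nuclear translocation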 (primary screen)
Cells: mouse RAW264.7 G9 macrophage reporter cells (GFP-p65, Tnf promoter-mCherry)
Reagent: siRNA pool against mouse genes, 100 nM
Timing: 2 days siRNA transfection, then 40 min LPS before fixation
Conditions: LPS (Salmonella minnesota R595) at 10 ng/ml
Measurement: 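Microscopy ratio of nuclear to perinuclear-ring GFP-p65 signal, scaled to the plate median; gene score is the average of two replicate robust z-scores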
Reading the numbers: p65 translocation robust z-score: higher = more nuclear NF-kappaB p65 after LPS than the plate median; nuclear/cytoplasmic p65 ratio: higher = more nuclear NF-kappaB p65
Call rule: 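Called active when z exceeds 3.3 or falls under -1.56 (median of Tlr4 controls), giving activity score of at least 50; no calls for control wells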
Calls: active = hit (p65 shift raised or lowered); inactive = no clear change
Shown is an unselected part of about 17,000 deposited reagents. 762 of them (4.5%) count as active. 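Active calls include both raised and lowered p65 entry, mostly lowered; wells with fewer than 50 cells lack a z-score.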 Raw values are not corrected between plates. Entries without a mark were called inactive.

| gene symbol | p65 translocation robust z-score | nuclear/cytoplasmic p65 ratio, rep 1 | nuclear/cytoplasmic p65 ratio, rep 2 | low cell count flag |
| --- | --- | --- | --- | --- |
| Arpin | – | 1.52 | 0 | fewer than 50 cells per well; well left out of scoring |
| Ankrd69 | -0.8 | 1.22 | 1.21 | enough cells to score |
| Caskin1 | -1.1 | 1.47 | 1.56 | enough cells to score |
| Ybx2 | -0.78 | 1.23 | 1.23 | enough cells to score |
| Armcx3 | 0.76 | 1.78 | 1.56 | enough cells to score |
| Sele | 0.78 | 1.51 | 1.82 | enough cells to score |
| Sh3yl1 | -0.48 | 1.38 | 1.2 | enough cells to score |
| Runx1 | -1.42 | 1.15 | 1.06 | enough cells to score |
| Or13d1 | 0.86 | 1.71 | 1.56 | enough cells to score |
| Ccl19 | -0.8 | 1.33 | 1.3 | enough cells to score |
| Ubl5 | -1.32 | 1.44 | 1.21 | enough cells to score |
| Triqk | -1.48 | 1.23 | 1.32 | enough cells to score |
| Antkmt | 0.51 | 1.68 | 1.89 | enough cells to score |
| Prpf19 | – | 1.07 | 0 | fewer than 50 cells per well; well left out of scoring |
| Lin9 | 0.93 | 1.52 | 1.58 | enough cells to score |
| Ccnj | 0.36 | 1.5 | 1.44 | enough cells to score |
| Spdef | -0.75 | 1.4 | 1.49 | enough cells to score |
| Adss1 | -1.54 | 1.29 | 1.53 | enough cells to score |
| Hsd17b8 | – | 1.69 | 1.4 | fewer than 50 cells per well; well left out of scoring |
| Gltpd2 | 1.32 | 1.74 | 2.05 | enough cells to score |
| Cyp3a44 | 0.18 | 1.57 | 1.85 | enough cells to score |
| Aph1a | 1.96 | 1.7 | 1.81 | enough cells to score |
| Mall | -0.53 | 1.48 | 1.59 | enough cells to score |
| Crhbp | 0.75 | 1.54 | 1.51 | enough cells to score |
| Meis3 | -2.44 (active) | 1.27 | 1.33 | enough cells to score |
| Agrp | -0.6 | 1.54 | 1.52 | enough cells to score |
| Per3 | 0.15 | 1.48 | 1.25 | enough cells to score |
| A930002I21Rik | 0.98 | 1.49 | 1.68 | enough cells to score |
| Txndc12 | – | 1.52 | 1.3 | fewer than 50 cells per well; well left out of scoring |
| Pa2g4 | -1.25 | 1.4 | 1.24 | enough cells to score |
| Npsr1 | -0.31 | 1.39 | 1.41 | enough cells to score |
| Olig1 | – | 0.985 | 1.08 | fewer than 50 cells per well; well left out of scoring |
| Tmem82 | -1.13 | 1.55 | 1.37 | enough cells to score |
| Npm3 | -1.15 | 1.59 | 1.31 | enough cells to score |
| Nipsnap3b | 1.43 | 2.08 | 1.61 | enough cells to score |
| Cfap97 | – | 1.36 | 1.46 | fewer than 50 cells per well; well left out of scoring |
| Clmp | -0.09 | 1.36 | 1.59 | enough cells to score |

Continued (3 carried over from the part before).
| gene symbol | p65 translocation robust z-score | nuclear/cytoplasmic p65 ratio, rep 1 | nuclear/cytoplasmic p65 ratio, rep 2 | low cell count flag |
| --- | --- | --- | --- | --- |
| Nipsnap3b | 1.43 | 2.08 | 1.61 | enough cells to score |
| Cfap97 | – | 1.36 | 1.46 | fewer than 50 cells per well; well left out of scoring |
| Clmp | -0.09 | 1.36 | 1.59 | enough cells to score |
| Kctd4 | -0.47 | 1.53 | 1.33 | enough cells to score |
| Nup214 | -0.24 | 1.57 | 1.58 | enough cells to score |
| Wipi2 | -1 | 1.27 | 1.34 | enough cells to score |
| Tm2d1 | -0.66 | 1.41 | 1.81 | enough cells to score |
| Edn2 | -0.42 | 1.71 | 1.26 | enough cells to score |
| Kcnk5 | -0.73 | 1.53 | 1.26 | enough cells to score |
| Sult2a8 | -0.22 | 1.35 | 1.43 | enough cells to score |
| Slc46a3 | -0.02 | 1.42 | 1.42 | enough cells to score |
| Klf7 | 1.23 | 1.54 | 1.53 | enough cells to score |
| Cdh16 | -0.8 | 1.37 | 1.26 | enough cells to score |
| Med21 | – | 1.31 | 1.36 | fewer than 50 cells per well; well left out of scoring |
| Col12a1 | 0.2 | 1.5 | 1.4 | enough cells to score |
| Eif4e2 | -1.12 | 1.35 | 1.19 | enough cells to score |
| Plk4 | 0.23 | 1.72 | 1.62 | enough cells to score |
| Fam43a | 0.9 | 1.73 | 1.97 | enough cells to score |
| Zscan20 | 0.24 | 1.49 | 1.24 | enough cells to score |
| Pkp3 | 0.73 | 1.61 | 1.49 | enough cells to score |
| Gimap9 | 0.7 | 1.44 | 1.65 | enough cells to score |
| Fastkd2 | -0.28 | 1.22 | 1.25 | enough cells to score |
| Dyrk1a | -0.74 | 1.55 | 1.31 | enough cells to score |
| Rph3al | -1.21 | 1.24 | 1.1 | enough cells to score |
| Lingo2 | -0.07 | 1.48 | 1.62 | enough cells to score |
